# The list shows a part of the results. Only hits are listed; about a third recur on repeated control peptides.
# Chains of the proteins cited; added tags and fusions are not shown.
# NFRKB, Q6P4R8, UniProt Q6P4R8, whole entry: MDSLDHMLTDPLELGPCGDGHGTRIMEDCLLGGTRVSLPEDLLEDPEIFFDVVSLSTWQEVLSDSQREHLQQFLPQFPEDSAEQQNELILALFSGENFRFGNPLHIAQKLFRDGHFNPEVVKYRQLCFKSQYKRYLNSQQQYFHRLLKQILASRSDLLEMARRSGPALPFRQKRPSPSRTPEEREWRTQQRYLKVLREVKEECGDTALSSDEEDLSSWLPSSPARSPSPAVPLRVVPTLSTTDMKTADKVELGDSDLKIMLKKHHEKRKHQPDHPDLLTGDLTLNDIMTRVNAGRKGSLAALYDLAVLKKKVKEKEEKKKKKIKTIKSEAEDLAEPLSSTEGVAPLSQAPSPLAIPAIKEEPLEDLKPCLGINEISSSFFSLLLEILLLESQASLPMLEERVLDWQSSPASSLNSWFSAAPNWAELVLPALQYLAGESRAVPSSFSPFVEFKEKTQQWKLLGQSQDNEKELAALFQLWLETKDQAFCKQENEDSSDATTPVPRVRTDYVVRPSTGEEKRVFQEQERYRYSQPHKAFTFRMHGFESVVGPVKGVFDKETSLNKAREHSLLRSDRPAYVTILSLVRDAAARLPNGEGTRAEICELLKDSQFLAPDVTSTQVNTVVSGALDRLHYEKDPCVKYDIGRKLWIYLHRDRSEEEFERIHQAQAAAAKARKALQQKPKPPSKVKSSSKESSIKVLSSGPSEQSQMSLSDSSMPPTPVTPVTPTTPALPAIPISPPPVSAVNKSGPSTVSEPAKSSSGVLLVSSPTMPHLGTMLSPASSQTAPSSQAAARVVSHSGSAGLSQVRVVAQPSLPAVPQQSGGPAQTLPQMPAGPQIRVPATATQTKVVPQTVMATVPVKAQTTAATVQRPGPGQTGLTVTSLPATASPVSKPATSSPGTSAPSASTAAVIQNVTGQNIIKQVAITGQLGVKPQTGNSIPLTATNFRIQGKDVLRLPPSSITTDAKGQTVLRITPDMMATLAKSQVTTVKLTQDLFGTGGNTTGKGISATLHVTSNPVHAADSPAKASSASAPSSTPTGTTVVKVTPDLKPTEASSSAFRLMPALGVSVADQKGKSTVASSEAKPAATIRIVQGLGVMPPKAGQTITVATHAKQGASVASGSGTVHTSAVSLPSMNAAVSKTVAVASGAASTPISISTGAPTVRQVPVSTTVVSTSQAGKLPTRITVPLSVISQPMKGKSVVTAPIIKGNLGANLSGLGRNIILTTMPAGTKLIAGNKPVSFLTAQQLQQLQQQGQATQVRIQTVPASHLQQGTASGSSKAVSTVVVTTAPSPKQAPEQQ
# RBM25, P49756, UniProt P49756, whole entry: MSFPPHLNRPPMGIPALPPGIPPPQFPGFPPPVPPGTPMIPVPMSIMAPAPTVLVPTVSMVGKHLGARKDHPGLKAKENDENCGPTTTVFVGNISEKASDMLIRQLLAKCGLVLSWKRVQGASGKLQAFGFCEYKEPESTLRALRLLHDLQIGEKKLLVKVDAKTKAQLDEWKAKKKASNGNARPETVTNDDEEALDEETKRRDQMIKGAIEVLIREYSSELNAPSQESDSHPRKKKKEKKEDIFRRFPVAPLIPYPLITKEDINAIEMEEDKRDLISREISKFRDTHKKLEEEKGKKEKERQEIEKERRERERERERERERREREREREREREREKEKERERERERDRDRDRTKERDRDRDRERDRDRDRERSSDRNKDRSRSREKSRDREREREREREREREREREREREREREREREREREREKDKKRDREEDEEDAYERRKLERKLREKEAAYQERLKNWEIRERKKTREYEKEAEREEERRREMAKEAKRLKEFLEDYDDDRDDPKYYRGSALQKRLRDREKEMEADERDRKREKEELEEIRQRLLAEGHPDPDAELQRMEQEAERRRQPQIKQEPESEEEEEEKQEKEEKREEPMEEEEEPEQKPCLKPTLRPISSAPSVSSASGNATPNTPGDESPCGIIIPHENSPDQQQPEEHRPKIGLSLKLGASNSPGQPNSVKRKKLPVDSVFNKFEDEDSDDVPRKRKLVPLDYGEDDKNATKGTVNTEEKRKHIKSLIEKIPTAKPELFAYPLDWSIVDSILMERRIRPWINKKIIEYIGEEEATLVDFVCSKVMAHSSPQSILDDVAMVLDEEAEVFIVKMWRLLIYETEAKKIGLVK
# CKS1B, P61024, UniProt P61024, whole entry: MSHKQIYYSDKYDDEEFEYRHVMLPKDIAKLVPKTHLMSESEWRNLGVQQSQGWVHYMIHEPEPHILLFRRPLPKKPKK
# CKS2, P33552, UniProt P33552, whole entry: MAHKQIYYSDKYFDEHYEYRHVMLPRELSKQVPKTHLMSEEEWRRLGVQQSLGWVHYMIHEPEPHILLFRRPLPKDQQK
# MPG, P29372, UniProt P29372, whole entry: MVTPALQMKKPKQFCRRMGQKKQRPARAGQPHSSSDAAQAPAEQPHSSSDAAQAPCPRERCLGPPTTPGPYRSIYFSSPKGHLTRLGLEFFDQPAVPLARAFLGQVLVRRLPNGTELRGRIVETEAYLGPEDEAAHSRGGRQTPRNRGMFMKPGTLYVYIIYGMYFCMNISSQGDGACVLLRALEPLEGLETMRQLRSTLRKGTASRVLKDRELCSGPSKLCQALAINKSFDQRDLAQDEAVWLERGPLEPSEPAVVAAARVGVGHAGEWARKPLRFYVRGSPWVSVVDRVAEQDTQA
# UFM1, P61960, UniProt P61960, whole entry: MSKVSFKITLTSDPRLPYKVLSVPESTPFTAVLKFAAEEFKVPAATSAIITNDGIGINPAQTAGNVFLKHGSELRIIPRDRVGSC
# HIST1H1C, P16403, UniProt P16403, whole entry: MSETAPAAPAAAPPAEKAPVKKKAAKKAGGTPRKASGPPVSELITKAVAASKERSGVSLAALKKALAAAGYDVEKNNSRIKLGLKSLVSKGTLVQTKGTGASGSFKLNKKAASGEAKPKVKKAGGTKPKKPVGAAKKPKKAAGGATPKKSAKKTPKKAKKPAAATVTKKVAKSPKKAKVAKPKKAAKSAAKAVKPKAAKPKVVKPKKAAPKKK
# HIST1H1D, P16402, UniProt P16402, whole entry: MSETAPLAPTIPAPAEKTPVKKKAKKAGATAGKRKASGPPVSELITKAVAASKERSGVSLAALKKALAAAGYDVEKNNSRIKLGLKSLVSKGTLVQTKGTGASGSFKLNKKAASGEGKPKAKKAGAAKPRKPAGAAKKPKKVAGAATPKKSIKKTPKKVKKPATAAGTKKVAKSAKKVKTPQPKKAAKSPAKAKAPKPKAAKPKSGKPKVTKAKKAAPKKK
# MORF4L2, Q15014, UniProt Q15014, whole entry: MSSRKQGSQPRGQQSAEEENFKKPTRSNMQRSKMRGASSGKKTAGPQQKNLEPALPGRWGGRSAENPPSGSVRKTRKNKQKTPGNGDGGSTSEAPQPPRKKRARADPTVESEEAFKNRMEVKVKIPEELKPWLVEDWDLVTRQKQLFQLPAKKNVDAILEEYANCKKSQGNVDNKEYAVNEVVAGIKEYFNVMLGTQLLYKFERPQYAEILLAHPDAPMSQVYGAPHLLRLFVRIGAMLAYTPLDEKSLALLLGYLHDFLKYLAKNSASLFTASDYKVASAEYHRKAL
# PIN4, Q9Y237, UniProt Q9Y237, whole entry: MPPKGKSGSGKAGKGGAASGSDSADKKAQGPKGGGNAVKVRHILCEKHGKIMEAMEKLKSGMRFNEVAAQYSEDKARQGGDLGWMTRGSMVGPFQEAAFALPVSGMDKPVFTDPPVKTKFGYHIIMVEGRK
# TMA7, Q9Y2S6, UniProt Q9Y2S6, whole entry: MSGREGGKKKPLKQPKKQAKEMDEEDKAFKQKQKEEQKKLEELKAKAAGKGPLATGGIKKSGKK
# DLX6, P56179, UniProt P56179, whole entry: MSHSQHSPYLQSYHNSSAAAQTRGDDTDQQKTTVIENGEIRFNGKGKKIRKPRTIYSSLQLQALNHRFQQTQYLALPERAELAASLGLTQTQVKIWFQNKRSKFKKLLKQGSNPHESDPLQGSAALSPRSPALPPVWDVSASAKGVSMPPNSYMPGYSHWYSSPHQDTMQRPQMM
# DPYSL3, Q14195, UniProt Q14195, whole entry: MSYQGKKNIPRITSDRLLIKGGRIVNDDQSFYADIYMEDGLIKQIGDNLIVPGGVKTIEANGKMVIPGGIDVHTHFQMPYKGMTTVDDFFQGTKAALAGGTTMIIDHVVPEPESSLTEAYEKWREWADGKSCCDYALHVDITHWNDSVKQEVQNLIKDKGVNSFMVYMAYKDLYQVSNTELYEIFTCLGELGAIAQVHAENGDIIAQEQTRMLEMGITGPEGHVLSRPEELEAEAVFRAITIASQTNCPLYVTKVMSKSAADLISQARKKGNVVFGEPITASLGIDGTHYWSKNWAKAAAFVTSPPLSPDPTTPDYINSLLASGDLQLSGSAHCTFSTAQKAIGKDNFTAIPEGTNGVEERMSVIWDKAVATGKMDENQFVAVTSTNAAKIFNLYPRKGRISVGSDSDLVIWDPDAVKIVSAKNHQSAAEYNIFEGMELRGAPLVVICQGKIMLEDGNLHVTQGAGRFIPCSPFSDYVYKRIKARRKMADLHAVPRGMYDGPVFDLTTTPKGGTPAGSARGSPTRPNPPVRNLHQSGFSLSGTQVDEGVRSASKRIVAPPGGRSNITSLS
# PLK1, P53350, UniProt P53350, whole entry: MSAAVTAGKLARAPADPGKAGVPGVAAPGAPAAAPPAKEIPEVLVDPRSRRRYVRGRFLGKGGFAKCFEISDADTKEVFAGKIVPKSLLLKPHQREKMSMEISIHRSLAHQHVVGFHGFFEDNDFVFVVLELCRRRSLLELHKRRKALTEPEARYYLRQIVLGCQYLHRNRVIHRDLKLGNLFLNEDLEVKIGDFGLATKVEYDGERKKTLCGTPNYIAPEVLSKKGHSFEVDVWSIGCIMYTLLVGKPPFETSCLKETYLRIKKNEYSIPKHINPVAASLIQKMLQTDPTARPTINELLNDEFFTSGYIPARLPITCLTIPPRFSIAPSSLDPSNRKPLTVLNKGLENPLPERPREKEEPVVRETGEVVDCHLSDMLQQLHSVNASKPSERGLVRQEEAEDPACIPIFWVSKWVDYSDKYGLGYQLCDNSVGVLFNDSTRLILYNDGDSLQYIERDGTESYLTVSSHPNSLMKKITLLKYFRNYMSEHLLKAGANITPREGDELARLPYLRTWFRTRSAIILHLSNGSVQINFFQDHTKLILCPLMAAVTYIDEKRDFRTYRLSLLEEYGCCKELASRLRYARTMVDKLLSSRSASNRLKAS
# Key:
# Experiment in all cases: PRISMA enrichment of interactor (LFQ) in peptide spot vs all other peptide spots (log2 fold change); higher = stronger / more specific binding of the interactor to the peptide
# [1] = molecular target: C19orf53, Q9UNZ5
# Protocol: (§1)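 PRISMA: 221 full-length sORF-encoded peptides (3-15 aa), plus SOS1/GLUT1 control peptides, were spot-synthesized on cellulose membranes in triplicate. Membranes were incubated with HEK293T lysate, and bound proteins were identified by LC-MS/MS with LFQ. Enrichment is the log2 fold change versus all other peptide spots; only significant interactors are listed (cutoff c=6, x0=2.8).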
# [2] = molecular target: HCFC1, P51610
# Protocol: as §1
# [3] = molecular target: MRS2, Q9HD23
# Protocol: as §1
# [4] = molecular target: NFRKB, Q6P4R8
# Protocol: as §1
# [5] = molecular target: PRPF31, Q8WWY3
# Protocol: as §1
# [6] = molecular target: TRIM44, Q96DX7
# Protocol: as §1
# [7] = molecular target: AURKA, O14965
# Protocol: as §1
# [8] = molecular target: DDX28, Q9NUL7
# Protocol: as §1
# [9] = molecular target: ITPA, Q9BY32
# Protocol: as §1
# [10] = molecular target: RBM25, P49756
# Protocol: as §1
# [11] = molecular target: SAPCD2, Q86UD0
# Protocol: as §1
# [12] = molecular target: SRRM1, Q8IYB3
# Protocol: as §1
# [13] = molecular target: STAG2, Q8N3U4
# Protocol: as §1
# [14] = molecular target: CAV1, Q03135
# Protocol: as §1
# [15] = molecular target: GCAT, O75600
# Protocol: as §1
# [16] = molecular target: NTMT1, Q9BV86
# Protocol: as §1
# [17] = molecular target: USP24, Q9UPU5
# Protocol: as §1
# [18] = molecular target: CKS1B, P61024
# Protocol: as §1
# [19] = molecular target: CKS2, P33552
# Protocol: as §1
# [20] = molecular target: CSNK1E, P49674
# Protocol: as §1
# [21] = molecular target: CXorf56, Q9H5V9
# Protocol: as §1
# [22] = molecular target: DERPC, P0CG12
# Protocol: as §1
# [23] = molecular target: DNAJA3, Q96EY1
# Protocol: as §1
# [24] = molecular target: GABARAPL2, P60520
# Protocol: as §1
# [25] = molecular target: ISCU, Q9H1K1
# Protocol: as §1
# [26] = molecular target: MPG, P29372
# Protocol: as §1
# [27] = molecular target: NUDT16L1, Q9BRJ7
# Protocol: as §1
# [28] = molecular target: NXF1, Q9UBU9
# Protocol: as §1
# [29] = substrate: PPIF, P30405
# Protocol: as §1
# [30] = molecular target: PPIL2, Q13356
# Protocol: as §1
# [31] = molecular target: UFM1, P61960
# Protocol: as §1
# [32] = molecular target: BOLA3, Q53S33
# Protocol: as §1
# [33] = molecular target: DNAJB11, Q9UBS4
# Protocol: as §1
# [34] = molecular target: UMPS, P11172
# Protocol: as §1
# [35] = molecular target: H1FX, Q92522
# Protocol: as §1
# [36] = molecular target: HIST1H1C, P16403
# Protocol: as §1
# [37] = molecular target: HIST1H1D, P16402
# Protocol: as §1
# [38] = molecular target: HMGN4, O00479
# Protocol: as §1
# [39] = molecular target: HP1BP3, Q5SSJ5
# Protocol: as §1
# [40] = molecular target: MAP4, P27816
# Protocol: as §1
# [41] = molecular target: MORF4L2, Q15014
# Protocol: as §1
# [42] = molecular target: MRPL3, P09001
# Protocol: as §1
# [43] = molecular target: PIN4, Q9Y237
# Protocol: as §1
# [44] = molecular target: SERF2, P84101
# Protocol: as §1
# [45] = molecular target: TMA7, Q9Y2S6
# Protocol: as §1
# [46] = molecular target: ZNF706, Q9Y5V0
# Protocol: as §1
# [47] = molecular target: BAG6, P46379
# Protocol: as §1
# [48] = molecular target: GC, P02774
# Protocol: as §1
# [49] = molecular target: MRPL48, Q96GC5
# Protocol: as §1
# [50] = molecular target: NUP54, Q7Z3B4
# Protocol: as §1
# [51] = molecular target: TRIP13, Q15645
# Protocol: as §1
# [52] = molecular target: C12orf65, Q9H3J6
# Protocol: as §1
# [53] = molecular target: DLX6, P56179
# Protocol: as §1
# [54] = molecular target: DPYSL3, Q14195
# Protocol: as §1
# [55] = molecular target: FDX1, P10109
# Protocol: as §1
# [56] = molecular target: MRFAP1, Q9Y605
# Protocol: as §1
# [57] = molecular target: NNT, Q13423
# Protocol: as §1
# [58] = molecular target: CSNK1A1, P48729
# Protocol: as §1
# [59] = molecular target: DECR2, Q9NUI1
# Protocol: as §1
# [60] = molecular target: DNAJC10, Q8IXB1
# Protocol: as §1
# [61] = molecular target: EMG1, Q92979
# Protocol: as §1
# [62] = molecular target: ISCA1, Q9BUE6
# Protocol: as §1
# [63] = molecular target: PLK1, P53350
# Protocol: as §1
# [64] = molecular target: POLDIP2, Q9Y2S7
# Protocol: as §1
# [65] = molecular target: ZNF768, Q9H5H4
# Protocol: as §1
binder,measurement,setting,value
MADASMLELVVA [SF3B3],PRISMA enrichment of interactor (log2),[1],8.24
same,PRISMA enrichment of interactor (log2),[2],7.44
same,PRISMA enrichment of interactor (log2),[3],6.16
same,PRISMA enrichment of interactor (log2),[4],7.19
same,PRISMA enrichment of interactor (log2),[5],6.04
same,PRISMA enrichment of interactor (log2),[6],9.28
MTAPPGTRERVGGL [DOCK4],PRISMA enrichment of interactor (log2),[7],4.95
same,PRISMA enrichment of interactor (log2),[8],4.28
same,PRISMA enrichment of interactor (log2),[9],7.2
same,PRISMA enrichment of interactor (log2),[10],8.73
same,PRISMA enrichment of interactor (log2),[11],5.4
same,PRISMA enrichment of interactor (log2),[12],4.87
same,PRISMA enrichment of interactor (log2),[13],6.98
MCPKAPQAGT [KLF9],PRISMA enrichment of interactor (log2),[14],4.41
same,PRISMA enrichment of interactor (log2),[15],6.14
same,PRISMA enrichment of interactor (log2),[16],6.26
same,PRISMA enrichment of interactor (log2),[17],4.67
MGSMSITWELAAL [TSPAN14],PRISMA enrichment of interactor (log2),[1],6.74
same,PRISMA enrichment of interactor (log2),[18],5.33
same,PRISMA enrichment of interactor (log2),[19],5.96
same,PRISMA enrichment of interactor (log2),[20],6.44
same,PRISMA enrichment of interactor (log2),[21],6.66
same,PRISMA enrichment of interactor (log2),[22],5.25
same,PRISMA enrichment of interactor (log2),[23],5.48
same,PRISMA enrichment of interactor (log2),[24],5.79
same,PRISMA enrichment of interactor (log2),[25],5.73
same,PRISMA enrichment of interactor (log2),[26],5.31
same,PRISMA enrichment of interactor (log2),[27],5.36
same,PRISMA enrichment of interactor (log2),[28],7.24
same,PRISMA enrichment of interactor (log2),[29],5.83
same,PRISMA enrichment of interactor (log2),[30],5.31
same,PRISMA enrichment of interactor (log2),[31],4.61
MPLIQCLCLAVTC [TMEM69],PRISMA enrichment of interactor (log2),[32],5.88
same,PRISMA enrichment of interactor (log2),[18],5.39
same,PRISMA enrichment of interactor (log2),[19],5.24
same,PRISMA enrichment of interactor (log2),[33],5.76
same,PRISMA enrichment of interactor (log2),[2],5.91
same,PRISMA enrichment of interactor (log2),[25],6.22
same,PRISMA enrichment of interactor (log2),[4],4.49
same,PRISMA enrichment of interactor (log2),[34],5.76
MMEEAEVEATEC [ADAM9],PRISMA enrichment of interactor (log2),[1],8.76
same,PRISMA enrichment of interactor (log2),[35],6.08
same,PRISMA enrichment of interactor (log2),[36],6.33
same,PRISMA enrichment of interactor (log2),[37],6.82
same,PRISMA enrichment of interactor (log2),[38],4.1
same,PRISMA enrichment of interactor (log2),[39],5.71
same,PRISMA enrichment of interactor (log2),[40],6.79
same,PRISMA enrichment of interactor (log2),[41],6.93
same,PRISMA enrichment of interactor (log2),[42],6.8
same,PRISMA enrichment of interactor (log2),[43],5.79
same,PRISMA enrichment of interactor (log2),[44],7.81
same,PRISMA enrichment of interactor (log2),[45],6.28
same,PRISMA enrichment of interactor (log2),[46],4.78
MERRVMVLPLIVETC [TRIM26],PRISMA enrichment of interactor (log2),[47],4.92
same,PRISMA enrichment of interactor (log2),[48],4.93
same,PRISMA enrichment of interactor (log2),[25],6.66
same,PRISMA enrichment of interactor (log2),[49],4.95
same,PRISMA enrichment of interactor (log2),[50],9.91
same,PRISMA enrichment of interactor (log2),[51],5.07
MAAPSRVRCGRLCL [HSPBP1],PRISMA enrichment of interactor (log2),[52],4.98
same,PRISMA enrichment of interactor (log2),[53],4.69
same,PRISMA enrichment of interactor (log2),[54],3.91
same,PRISMA enrichment of interactor (log2),[55],4.69
same,PRISMA enrichment of interactor (log2),[56],6.03
same,PRISMA enrichment of interactor (log2),[57],6.84
MQRPMDELCF [ABCA9],PRISMA enrichment of interactor (log2),[1],6.86
same,PRISMA enrichment of interactor (log2),[58],6.81
same,PRISMA enrichment of interactor (log2),[59],5.31
same,PRISMA enrichment of interactor (log2),[60],6.32
same,PRISMA enrichment of interactor (log2),[61],7.5
same,PRISMA enrichment of interactor (log2),[62],3.76
same,PRISMA enrichment of interactor (log2),[41],7.53
same,PRISMA enrichment of interactor (log2),[63],6.34
same,PRISMA enrichment of interactor (log2),[64],7.47
same,PRISMA enrichment of interactor (log2),[29],6.22
same,PRISMA enrichment of interactor (log2),[65],6.04

# Quoted from the entries so far for reference:
binder,measurement,setting,value
MTAPPGTRERVGGL [DOCK4],PRISMA enrichment of interactor (log2),[7],4.95
same,PRISMA enrichment of interactor (log2),[8],4.28
same,PRISMA enrichment of interactor (log2),[9],7.2

# Two entries from above, as tab-separated lines:
binder	measurement	setting	value
MGSMSITWELAAL [TSPAN14]	PRISMA enrichment of interactor (log2)	[1]	6.74
MPLIQCLCLAVTC [TMEM69]	PRISMA enrichment of interactor (log2)	[33]	5.76
